Cleaved PARP in drug-treated melanoma cells

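The test systems are human melanoma cell lines, treated with two drugs together for 72 h and then stained and imaged. Values are the share of nuclei positive for cleaved PARP as a percentage of the same share in the DMSO control: 100 is the control level, higher means more apoptosis. Every drug was used at one fixed concentration, the higher of two screened. No replicate spread is given; individual values may be noisy. The marker varies much from line to line, for technical or biological reasons.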 This is part of the screen, not chosen by result. A dash means that no value is listed here.

Drug key:
U73122, 2 µM: COc1ccc2c(c1)CCC1C2CCC2(C)C(NCCCCCCN3C(=O)C=CC3=O)CCC12 (stereo not given)
lapatinib, 4 µM: CS(=O)(=O)CCNCc1ccc(-c2ccc3ncnc(Nc4ccc(OCc5cccc(F)c5)c(Cl)c4)c3c2)o1
fingolimod, 10 µM: CCCCCCCCc1ccc(CCC(N)(CO)CO)cc1
CHIR-265, 0.4 µM: Cn1c(Nc2ccc(C(F)(F)F)cc2)nc2cc(Oc3ccnc(-c4ncc(C(F)(F)F)[nH]4)c3)ccc21

Cell line,CHIR-265 + U73122,lapatinib + CHIR-265,U73122 + fingolimod,fingolimod + CHIR-265,lapatinib + U73122
WM1716,49.1,44.0,210,172,183
SK-MEL-2,189,159,134,20600,110
A101D,791,134,3400,981,507
COLO 829,98.8,424,82.7,327,151
WM3619,265,203,3190,3620,1210
UACC-62,185,848,352,157,709
SK-MEL-28,196,252,8380,534,78.1
MEL-HO,35.7,64.7,431,606,118
WM451Lu,458,460,6120,8860,451
MZ2-MEL,110,152,23.4,13800,48.6
MeWo,170,140,830,183,65.6
SK-MEL-5,2990,2700,122,968,209
COLO 792,583,515,561,7800,264
RPMI-7951,300,376,2900,1170,949
IST-MEL1,216,287,201,651,45.0
G-361,708,1040,4870,11800,203
RVH-421,184,423,28.0,1900,104
A375,757,530,99.2,424,146
WM3526,397,1430,805,1320,121
501mel,204,-,4430,-,132
LB2518-MEL,469,264,138,30900,80.1
COLO 800,270,93.9,225,146,276
C32,269,168,1820,215,139
SK-MEL-30,294,174,261,1970,130
IPC-298,40.7,327,113,313,119
WM1745,187,390,-,2050,-
LOX IMVI,279,95.3,101,851,59.4
UACC-257,126,47.1,29.3,46.9,19.6
WM115,666,3470,181,7150,38.0
A2058,381,467,1890,1690,213

Once more, the final 2:

Cell line,CHIR-265 + U73122,lapatinib + CHIR-265,U73122 + fingolimod,fingolimod + CHIR-265,lapatinib + U73122
WM115,666,3470,181,7150,38.0
A2058,381,467,1890,1690,213

From a melanoma drug combination screen (doi:10.1371/journal.pone.0140310); values rounded.